Each structure is given as a SMILES string. In brackets after ≈: the same amount, converted by molar mass. Like-named read-outs stand apart in the source and are kept apart here.

The assay relates to T. cruzi Tulahuen C2C4, containing the Lac Z gene. Kind of assay: In vitro sensitivity assay: T. cruzi (Lac Z / CPRG, in L-6 cells). It is filed as cell-based. Particulars: Trypanosoma cruzi, L6.

In general, IC50 refers to the midpoint of a concentration-inhibition curve. `O=C(Cn1ccnc1[N+](=O)[O-])NCc1ccccc1` [benznidazole, Benznidazole]: the IC50 is, setting by setting: (Tulahuen C4, amastigotes in L-6 cells, read-out: IC50 Values T. cruzi) 0.407 mg/L (≈ 1.56 µM); (TULAHUEN, standard drug, protocol value, read-out: IC50) 0.35 mg/L (≈ 1.34 µM).

(Values after patent US9199914B2, “Multiple substituted fluoromethanes as selective and bioactive isosteres” (MEH ASSOCIATES, INC., priority 2010, dated 2015).)
